Among the data in article PMC9845307, “Arabidopsis LSH10 transcription factor and OTLD1 histone deubiquitinase interact and transcriptionally regulate the same target genes” are binding values, retold here.

No constants are given. Whether binding was seen depends on the method and setting. In cells and extracts the contact can be indirect. For some of these results: A result given as binding can be weak or reduced; the word gives no strength. Where a sequence is shown, tags or fusion partners need not be part of it.

The target of experiment [1] is OTLD1-RFP (Arabidopsis). In words: FRET or BRET; sensitized emission FRET (SE-FRET): GFP donor, RFP acceptor, transiently co-expressed in N. benthamiana leaves; cell nuclei, confocal microscopy, PixFRET correction. On the technique in general: Bioluminescence resonance energy transfer reports proximity on the nanometre scale.
Experiment [2] addresses OTLD1-RFP (Arabidopsis). The experiment is described as follows: FRET or BRET; acceptor photobleaching FRET (AB-FRET): GFP donor, RFP acceptor, transiently co-expressed in N. benthamiana leaves; %AB-FRET = percent increase in GFP emission after RFP photobleaching, cell nucleus, n = 13 cells.
The target of experiment [3] is OTLD1 tagged with a YFP half (BiFC) (Arabidopsis). In words: split reporter; BiFC: nEYFP- and cEYFP-tagged proteins transiently co-expressed in N. benthamiana leaves by agroinfiltration; confocal microscopy 2 days after infiltration.

B1: LSH4-GFP (protein, UniProt Q9LW68 1-195)
chain: MDHIIGFMGTTNMSHNTNLMIAAAATTTTTSSSSSSSSGGSGTNQLSRYENQKRRDWNTFGQYLRNHRPPLSLSRCSGAHVLEFLRYLDQFGKTKVHTHLCPFFGHPNPPAPCACPLRQAWGSLDALIGRLRAAFEENGGSPETNPFGARAVRLYLREVRDSQAKARGISYEKKKRKRPPPPLPPAQPAISSSPN
B1: the binding result with OTLD1-RFP (Arabidopsis) [1] and with OTLD1-RFP (Arabidopsis) [2] was “no binding” in each case.

B2: LSH10 tagged with a YFP half (BiFC) (protein, UniProt Q9S7R3 1-177)
chain: MSSPRERGKSLMESSGSEPPVTPSRYESQKRRDWNTFGQYLKNQRPPVPMSHCSCNHVLDFLRYLDQFGKTKVHVPGCMFYGQPEPPAPCTCPLRQAWGSLDALIGRLRAAYEENGGPPETNPFASGAIRVYLREVRECQAKARGIPYKKKKKKKPTPEMGGGREDSSSSSSSFSFS
With B2, the binding entry in experiment [3] is recorded as “binds”.

B3: LSH10-GFP (protein, UniProt Q9S7R3 1-177)
chain: MSSPRERGKSLMESSGSEPPVTPSRYESQKRRDWNTFGQYLKNQRPPVPMSHCSCNHVLDFLRYLDQFGKTKVHVPGCMFYGQPEPPAPCTCPLRQAWGSLDALIGRLRAAYEENGGPPETNPFASGAIRVYLREVRECQAKARGIPYKKKKKKKPTPEMGGGREDSSSSSSSFSFS
Turning to B3, the binding result in the experiment with OTLD1-RFP (Arabidopsis) [1] was “binds”.
